The supplement of paper PMC10849652
Some of the results follow.

Amino acid sequences for entries named in this document (tags omitted). A change or cut given only in a name is not applied to a line headed by its entry.
UniProt Q5T7W0: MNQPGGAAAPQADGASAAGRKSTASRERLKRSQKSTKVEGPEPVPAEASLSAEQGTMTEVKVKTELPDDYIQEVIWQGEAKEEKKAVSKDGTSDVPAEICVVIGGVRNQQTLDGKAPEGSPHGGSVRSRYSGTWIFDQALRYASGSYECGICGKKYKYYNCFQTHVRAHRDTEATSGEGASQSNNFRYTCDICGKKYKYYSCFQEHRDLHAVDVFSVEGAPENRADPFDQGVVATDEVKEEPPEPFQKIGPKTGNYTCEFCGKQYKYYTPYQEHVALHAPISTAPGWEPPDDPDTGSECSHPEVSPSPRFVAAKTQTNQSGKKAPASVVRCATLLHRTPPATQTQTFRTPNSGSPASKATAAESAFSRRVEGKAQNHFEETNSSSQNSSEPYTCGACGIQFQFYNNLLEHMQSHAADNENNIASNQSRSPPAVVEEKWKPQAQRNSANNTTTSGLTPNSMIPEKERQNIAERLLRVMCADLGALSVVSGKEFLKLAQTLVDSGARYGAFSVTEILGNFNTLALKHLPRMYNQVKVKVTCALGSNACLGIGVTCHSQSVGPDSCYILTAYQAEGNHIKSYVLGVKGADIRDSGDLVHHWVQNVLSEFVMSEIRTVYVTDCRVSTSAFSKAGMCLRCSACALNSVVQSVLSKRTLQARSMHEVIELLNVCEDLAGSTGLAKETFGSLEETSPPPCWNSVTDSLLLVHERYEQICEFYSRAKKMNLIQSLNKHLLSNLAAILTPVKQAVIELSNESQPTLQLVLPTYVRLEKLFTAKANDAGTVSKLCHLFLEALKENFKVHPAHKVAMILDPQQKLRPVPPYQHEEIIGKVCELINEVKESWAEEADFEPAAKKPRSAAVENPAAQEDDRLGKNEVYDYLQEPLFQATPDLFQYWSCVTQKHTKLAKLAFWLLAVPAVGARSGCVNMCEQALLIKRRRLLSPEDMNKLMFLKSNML
UniProt Q969S3: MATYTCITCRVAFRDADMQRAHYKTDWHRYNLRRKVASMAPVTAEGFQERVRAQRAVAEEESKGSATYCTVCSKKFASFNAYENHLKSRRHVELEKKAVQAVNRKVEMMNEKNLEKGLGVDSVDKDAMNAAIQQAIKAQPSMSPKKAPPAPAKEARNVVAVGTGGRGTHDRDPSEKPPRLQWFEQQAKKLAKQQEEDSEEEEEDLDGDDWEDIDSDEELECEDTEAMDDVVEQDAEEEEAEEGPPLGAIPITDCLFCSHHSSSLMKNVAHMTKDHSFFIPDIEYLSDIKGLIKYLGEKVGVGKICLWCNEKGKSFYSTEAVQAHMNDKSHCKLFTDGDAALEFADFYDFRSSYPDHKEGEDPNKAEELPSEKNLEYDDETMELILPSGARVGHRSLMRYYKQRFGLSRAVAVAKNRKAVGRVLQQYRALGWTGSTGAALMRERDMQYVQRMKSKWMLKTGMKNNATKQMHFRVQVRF

Biological target: ZNF618 isoform 2 (UniProt Q5T7W0)
Assay: log2 fold change, soluble protein after heating vs DMSO (PISA); higher = thermal stabilisation; K562 cells, 10 uM, 30 min; active = over 0.2 and 3.5 SD of the protein, either way, in both replicates (recomputed)
In short: (§1)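 K562 cells at 2×10^6 cells/mL were given 10 μM compound for 30 min. Aliquots then went through 3 min of heating across 48°C-58°C, were pooled, and were extracted in PBS with 0.5% NP-40 at 4°C, and the supernatant after 21,000xg for 90 min was quantified by TMTpro 16plex LC-MS/MS with channel sums equalised. Thermal stability relative to control samples, from duplicates, is given as log2 fold change.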

log2 fold change, inactive:
CCCc1cc(C)[nH]c(=O)c1CNC(=O)c1cc(-c2ccnc(N3CCN(C)CC3)c2)cc2c1cnn2C(C)C 0.042
NC1(c2ccc(-c3nc4ccn5c(=O)[nH]nc5c4cc3-c3ccccc3)cc2)CCC1 0.105
O=C1NC(=O)/C(=C\c2ccc3nccnc3c2)S1 0.017
CCN(CCCOc1ccc2c(Nc3cc(CC(=O)Nc4cccc(F)c4)[nH]n3)ncnc2c1)CCOP(=O)(O)O [barasertib] -0.059
COc1cccc2cc(-c3nc([C@H]4CC[C@H](C(=O)O)CC4)n4ncnc(N)c34)[nH]c12 0.061
Cc1ccc(NC(=O)c2ccc(CN3CC[C@H](N(C)C)C3)c(C(F)(F)F)c2)cc1Nc1nccc(-c2cncnc2)n1 [bafetinib] 0.017
COc1cc(Nc2ncc3c(n2)-c2ccc(Cl)cc2C(c2c(F)cccc2OC)=NC3)ccc1C(=O)O [alisertib] 0.044
O=C(O)c1ccc2c(c1)nc(Nc1cccc(Cl)c1)c1ccncc12 [silmitasertib] -0.087
C=CC(=O)N1CCC[C@@H](n2nc(-c3ccc(Oc4ccccc4)cc3)c3c(N)ncnc32)C1 [ibrutinib] -0.003
FC(F)(F)c1ccc(/C=C/c2nc(COc3ccc(CCCCn4ccnn4)cc3)co2)cc1 [mubritinib] -0.106

Biological target: ZNF622 (UniProt Q969S3)
Assay: as above
In short: as §1

log2 fold change, inactive:
CCCc1cc(C)[nH]c(=O)c1CNC(=O)c1cc(-c2ccnc(N3CCN(C)CC3)c2)cc2c1cnn2C(C)C -0.01
Cc1cccc(-c2[nH]c(C(C)(C)C)nc2-c2ccc3nccnc3c2)n1 0.008
COc1cc2ncnc(Nc3ccc(F)c(Cl)c3)c2cc1OCCCN1CCOCC1 [gefitinib] 0
Cc1cc(Nc2cc(CN3CCOCC3)c3nc(C)c(Cc4ccc(Cl)cc4F)n3n2)n[nH]1 [gandotinib] 0.075
NC1(c2ccc(-c3nc4ccn5c(=O)[nH]nc5c4cc3-c3ccccc3)cc2)CCC1 -0.019
O=C1NC(=O)/C(=C\c2ccc3nccnc3c2)S1 -0.004
CCN(CCCOc1ccc2c(Nc3cc(CC(=O)Nc4cccc(F)c4)[nH]n3)ncnc2c1)CCOP(=O)(O)O [barasertib] -0.001
Cc1ncc(-c2ccnc(Nc3ccc(S(C)(=O)=O)cc3)n2)n1C(C)C 0.013
Cc1cccc(CC(=O)N2CCc3c2ccc(-c2cn(C)c4ncnc(N)c24)c3F)n1 -0.019
COc1cccc2cc(-c3nc([C@H]4CC[C@H](C(=O)O)CC4)n4ncnc(N)c34)[nH]c12 0.01
Cc1ccc(NC(=O)c2ccc(CN3CC[C@H](N(C)C)C3)c(C(F)(F)F)c2)cc1Nc1nccc(-c2cncnc2)n1 [bafetinib] 0.021
CCn1cc(-c2ccnc3[nH]c(-c4cccc(CN(C)C)c4)cc23)c(-c2ccc(NC(=O)N(C)C)cc2)n1 -0.077
CC(C)N(C[C@H]1O[C@@H](n2cnc3c(N)ncnc32)[C@H](O)[C@@H]1O)[C@H]1C[C@@H](CCc2nc3cc(C(C)(C)C)ccc3[nH]2)C1 [pinometostat] 0.014
CN1CCC(CNc2ccc3ncc(-c4cccc(OC(F)(F)F)c4)n3n2)CC1 0.03
C[C@@H](N)c1ccc(C(=O)Nc2ccnc3[nH]ccc23)cc1 0
CC[C@H](C)n1cc(C)c2c(C(=O)NCc3c(C)cc(C)[nH]c3=O)cc(-c3ccc(N4CCNCC4)nc3)cc21 -0.012
COc1ccc(Cn2ccc3ccc(C(=O)NO)cc32)cc1 -0.033
CS(=O)(=O)N1CCN(Cc2cc3nc(-c4cccc5[nH]ncc45)nc(N4CCOCC4)c3s2)CC1 [pictilisib] 0.144
COc1cc(Nc2ncc3c(n2)-c2ccc(Cl)cc2C(c2c(F)cccc2OC)=NC3)ccc1C(=O)O [alisertib] -0.028
Cn1cc(-c2ccc3c(c2)CCN3C(=O)Cc2cccc(C(F)(F)F)c2)c2c(N)ncnc21 0.067
O=C(CCCCCCC(=O)Nc1ccccc1)NO [vorinostat] -0.049
C[C@@H](Oc1cc(-c2cnn(C3CCNCC3)c2)cnc1N)c1c(Cl)ccc(F)c1Cl [crizotinib] -0.029
Cc1ccc(-n2nc(C(C)(C)C)cc2NC(=O)Nc2ccc(OCCN3CCOCC3)c3ccccc23)cc1 [doramapimod] 0.009
Cc1cn(-c2cc(NC(=O)c3ccc(C)c(Nc4nccc(-c5cccnc5)n4)c3)cc(C(F)(F)F)c2)cn1 [nilotinib] 0.046
O=C(O)c1ccc2c(c1)nc(Nc1cccc(Cl)c1)c1ccncc12 [silmitasertib] -0.058
C=CC(=O)N1CCC[C@@H](n2nc(-c3ccc(Oc4ccccc4)cc3)c3c(N)ncnc32)C1 [ibrutinib] -0.003
O=C(Nc1nc2ccccc2n1CCN1CCOCC1)c1cccc([N+](=O)[O-])c1 [IRAK-1-4 Inhibitor I] 0.004
Cc1nc(Nc2n[nH]c3c2CN(C(=O)N[C@H](CN(C)C)c2ccccc2)C3(C)C)c2sccc2n1 0.091
CO[C@H]1C[C@@H]2CC[C@@H](C)[C@@](O)(O2)C(=O)C(=O)N2CCCC[C@H]2C(=O)O[C@H]([C@H](C)C[C@@H]2CC[C@H](n3cnnn3)[C@H](OC)C2)CC(=O)[C@H](C)/C=C(\C)[C@@H](O)[C@@H](OC)C(=O)[C@H](C)C[C@H](C)/C=C/C=C/C=C/1C [zotarolimus] -0.017
FC(F)(F)c1ccc(/C=C/c2nc(COc3ccc(CCCCn4ccnn4)cc3)co2)cc1 [mubritinib] 0.004
